# Measurements published in PubChem BioAssay AID1259415 (National Center for Advancing Translational Sciences (NCATS), 2018).
# In all, about 410,000 compounds went through this assay and about 18,000 (4.4%) were called active. Inconclusive means that the source gave no clear call. Such entries were picked first, then a sample of the others. Rule as the data show it: active = activity change below about -60%; inconclusive = no clear call, values can overlap the other calls; inactive = above about -39%.
# Assay: qHTS Assay for inhibitors of the human cytomegalovirus (HCMV)
# Details: HFF cells, HCMV-luciferase reporter, 72 h; at 57.5 µM; stronger effect = lower value
# Summary of the method: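 Two compound doses tested in HFFs infected with HCMV-luciferase, MOI 1 PFU/cell, 72 h at 37C. Lysate luminescence read with OneGlo; data normalized against buffer-only and 10uM Salinomycin inhibitor controls.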
# % is scaled to controls: 0 for no effect and ±100 for the full control effect.
row,SMILES,"activity change, negative = inhibition"
1,COC(=O)N/N=C/c1cn(CCOc2ccccc2)c2ccccc12,inconclusive: -41.4%
2,Clc1ccc(Nc2nc(C3CC3)cs2)cc1,inconclusive: -48.2%
3,COc1ccc(-n2c(C)nc3c(cnn3-c3ccc(Cl)cc3)c2=O)cc1,active: -76.8%
4,O=C1C(=O)c2ccccc2C(O)=C1c1cccc([N+](=O)[O-])c1,active: -66.3%
5,COC(=O)c1ccc(NC(=O)CC2C(=O)N(c3cccc(OC)c3)C(=O)N2C(C)C)cc1 (stereo not drawn),inactive: 13.1%
6,Cc1ccc(NC(=O)CSc2nc3ccccc3c3nc(CCc4c(C)n[nH]c4C)nn23)cc1F,inconclusive: -48.5%
7,NC(=O)c1ccc(CN2CCC(Cc3ccccc3)CC2)cc1,inconclusive: -43.1%
8,C[C@H]1[C@@H](NS(=O)(=O)c2ccc(Cl)cc2)CC[C@@]23CCCN2C(=O)CCC[C@@H]13,inactive: 22.9%
9,CCOC(=O)N1CCN(C(=O)/C(=C/c2cccs2)NC(=O)c2ccc(OC)c(OC)c2)CC1,inconclusive: -47.6%
10,CN(C1CCCCC1)S(=O)(=O)c1ccc(C(=O)O)cc1,inactive: 14.7%
11,C/C(=N\O)C(=O)C(CN1CCCCC1)CN1CCCCC1,inconclusive: -43.8%
12,COc1cc(NC(=O)c2c(Cl)cnn2C)c(OC)cc1Cl,active: -60.5%
13,O=c1c(/C=N/Nc2ccccc2)c(Sc2nnnn2-c2ccccc2)nc2ccccn12,inconclusive: -58.9%
14,Cc1nn(-c2ccccc2)c(N2CCCC2)c1/C=N/Nc1ccc(S(=O)(=O)Nc2ccccc2)cc1[N+](=O)[O-],inconclusive: -46.3%
15,Cc1[nH]c(C)c(S(=O)(=O)N2CCN(c3cccc(C(F)(F)F)c3)CC2)c1C(=O)N1CCCC1,inactive: -9.51%
16,COc1ccccc1N(CC(=O)NCCSCc1ccco1)S(=O)(=O)c1ccccc1,inactive: -28.2%
17,Cc1cc(-c2ccc(C)c(S(=O)(=O)N3CCOc4ccc(Cl)cc43)c2)on1,inactive: -39.7%
18,CC(C)Oc1cc(F)ccc1-c1cc(C(=O)Nc2cccc(C(F)(F)F)c2)[nH]n1,active: -63.9%
19,CC(Sc1nc(C2CC2)n(-c2ccccc2)n1)C(=O)c1c(N)n(C)c(=O)n(C)c1=O (stereo not drawn),inconclusive: -45.9%
20,CCOc1cc(N2CCOCC2)c(OCC)cc1NC(=O)CN1C(=O)N(C)C2(CCCCC2)C1=O,inactive: -39.2%
21,Cc1ccccc1CS(=O)(=O)c1ccc(C(=O)N2CCC(C)CC2)cc1[N+](=O)[O-],inconclusive: -48.2%
22,COc1ccc(OCC(=O)Nc2ccc(N3CCOCC3)cc2)c([N+](=O)[O-])c1,inconclusive: -52.1%

# 2 records picked at random from those above:
row,SMILES,"activity change, negative = inhibition"
11,C/C(=N\O)C(=O)C(CN1CCCCC1)CN1CCCCC1,inconclusive: -43.8%
15,Cc1[nH]c(C)c(S(=O)(=O)N2CCN(c3cccc(C(F)(F)F)c3)CC2)c1C(=O)N1CCCC1,inactive: -9.51%

# Next records.

row,SMILES,"activity change, negative = inhibition"
1,Cc1ccc(-c2cnn(-c3cccc([N+](=O)[O-])c3)c2N)cc1,inconclusive: -50.2%
2,COC(=O)CCn1nnc(-c2ccc(C(C)C)cc2)n1,active: -62.4%
3,O=C(c1cnc(Cc2c[nH]c3ccccc23)c(I)c1)N1CCOCC1,inactive: -1.63%
4,CN(C)CCCNC(=S)Nc1ccc(Br)cc1,inconclusive: -51.3%
5,c1ccc(Cn2ncc3c(N4CCN(c5ccccc5)CC4)ncnc32)cc1,inconclusive: -40.7%
6,Cc1ccc(Cn2ccc(=O)c(Cc3c(Cl)cccc3Cl)c2C)cc1,inactive: -6.08%
7,CCCCOc1ccc(Br)cc1/C(C)=N/NC1=NCCN1,active: -100%
8,COc1ccc(/C=N/NC(=S)Nc2ccccc2)cc1,inactive: -7.58%
9,CC(NCCC1(C(C)C)CCOC(C)(C)C1)c1cccs1 (stereo not drawn),inconclusive: -41.3%
10,O=C(Nc1nccs1)C1CC(=O)N(c2ccc(Cl)cc2)C1 (stereo not drawn),inactive: 14.7%
11,O=C(Nc1ccc(Cl)cc1)c1cc2c(cc1O)[nH]c1ccccc12,active: -81.2%
12,N/C(Cc1ccc([N+](=O)[O-])cc1)=N\OC(=O)COc1cccc2ccccc12,inactive: 14.2%
13,COc1ccc(-n2nc([N+](=O)[O-])c(=NCCc3ccc(OC)c(OC)c3)n2O)cc1,inconclusive: -54%
14,CCCSc1ncc(Cl)c(C(=O)N(Cc2ccc(Cl)cc2)Cc2ccco2)n1,active: -66.2%
15,COc1ccc(S(=O)(=O)Nc2cccc(N(C)S(C)(=O)=O)c2)cc1Br,inconclusive: -57.5%
16,O=C1CC(c2cccc(Br)c2)c2cc3c(cc2N1)CCC3 (stereo not drawn),active: -65.4%
17,CCN(CC(=O)NC1CCCCCC1)S(=O)(=O)c1ccccc1,inconclusive: -43.3%
18,CCOC(=O)N1CCc2c(sc3c2c(=O)n(-c2ccc(CC)cc2)c(=O)n3C)C1,inconclusive: -50.8%
19,COc1ccc(-n2c(=S)[nH]c3cc(C(=O)Nc4ccccc4OC)ccc3c2=O)c(OC)c1,inconclusive: -52.3%
20,O=C(COC(=O)CCSc1ccc(Cl)cc1)NCc1ccccc1,inconclusive: -48.6%
21,COc1ccc(-n2c(=S)[nH]c3cc(C(=O)NC4CCCCC4)ccc3c2=O)c(OC)c1,inconclusive: -56%
